Data source: PubChem BioAssay AID602196 (INSERM, 2012)
Screen: 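Knock-downs that protect lung cancer cells from cisplatin or sensitise them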. System: human A549 lung cancer cells. Reagent: siRNA pair against human genes. Duration: 48 h transfection before cisplatin; time from cisplatin to read-out not stated. Conditions: cisplatin at a dose killing half of control-siRNA cells; exact dose and duration not given. Measurement: 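Cisplatin cell death as a shift from the 50% death seen with control siRNA; siRNAs toxic or growth-blocking alone scored 0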. Reading the numbers: two-siRNA summed score (-2 to +2): higher = both siRNAs protect from cisplatin killing; -2 means both sensitise. Call rule: 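siRNAs harmful alone (LDH or WST-1) get 0; others get +1 for less and -1 for more cisplatin killing; genes are active when the two siRNAs give the same sign, summing to ±2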. Calls: active = both siRNAs shift cisplatin killing the same way; inactive = no consistent shift, or siRNA harmful alone.
In all, the deposit lists about 23,000 reagents; below is a part drawn at random. 455 of all reagents (2%) were called active. 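Active includes both protection and sensitisation; some change values fall well beyond the stated -50 to +50 range.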 A number with no mark means an inactive call. Further read-outs or replicates are left out here. No sequences are given here. Not stated in the record: the amount of reagent.

gene | two-siRNA summed score (-2 to +2)
APOL3 (apolipoprotein L3) | 0
NBPF3 (NBPF member 3) | 0
FBXW12 (F-box and WD repeat domain containing 12) | 0
ZNF775 (zinc finger protein 775) | 0
BCL6B (BCL6B transcription repressor) | 1
AFDN (afadin, adherens junction formation factor) | 1
FEV (FEV transcription factor, ETS family member) | -1
LARS2 (leucyl-tRNA synthetase 2, mitochondrial) | -1
MAP4K2 (mitogen-activated protein kinase kinase kinase kinase 2) | 1
ORMDL2 (ORMDL sphingolipid biosynthesis regulator 2) | 0
CLCA1 (chloride channel accessory 1) | 0
TMEM167A (transmembrane protein 167A) | 0
HOXD3 (homeobox D3) | 1
NPR1 (natriuretic peptide receptor 1) | 0
CEP20 (centrosomal protein 20) | 0
MOB3C (MOB kinase activator 3C) | 0
CST4 (cystatin S) | 0
ZDHHC5 (zDHHC palmitoyltransferase 5) | 1
ELAPOR2 | 1
LOC440079 | 0
SLC30A7 | 0
NDUFB10 (NADH:ubiquinone oxidoreductase subunit B10) | 0
LOC388154 | 0
LOC130355 | 0

Taken from above:
Result of FBXW12 (F-box and WD repeat domain containing 12) in “two-siRNA summed score (-2 to +2)”: 0
ORMDL2 (ORMDL sphingolipid biosynthesis regulator 2), two-siRNA summed score (-2 to +2) = 0
Under “two-siRNA summed score (-2 to +2)”, MAP4K2 (mitogen-activated protein kinase kinase kinase kinase 2) has 1
Under “two-siRNA summed score (-2 to +2)”, CLCA1 (chloride channel accessory 1) reads 0
HOXD3 (homeobox D3), two-siRNA summed score (-2 to +2) = 1
Value of ZDHHC5 (zDHHC palmitoyltransferase 5) in “two-siRNA summed score (-2 to +2)”: 1

Continued.
gene | two-siRNA summed score (-2 to +2)
SCPEP1 (serine carboxypeptidase 1) | 0
LAGE3 (L antigen family member 3) | 0
PPP5C (protein phosphatase 5 catalytic subunit) | 0
HJV (hemojuvelin BMP co-receptor) | 0
TAB3 (TGF-beta activated kinase 1 (MAP3K7) binding protein 3) | 0
HPF1 (histone PARylation factor 1) | 0
PHF13 (PHD finger protein 13) | -1
USP14 (ubiquitin specific peptidase 14) | 0
CLDN7 (claudin 7) | 0
ATE1 (arginyltransferase 1) | 1
TRPV2 | 0
FLJ14082 | 0
S1PR5 (sphingosine-1-phosphate receptor 5) | 0
LOC441881 | 0
NHSL2 (NHS like 2) | 0
DYDC1 (DPY30 domain containing 1) | 0
OBSCN | 0
UQCC2 (ubiquinol-cytochrome c reductase complex assembly factor 2) | 0
PNMT (phenylethanolamine N-methyltransferase) | -1
LOC389749 | 0
CDK13 (cyclin dependent kinase 13) | -1
TMBIM1 (transmembrane BAX inhibitor motif containing 1) | 0
XPR1 (xenotropic and polytropic retrovirus receptor 1) | 0
UTY | -1
NF1 (neurofibromin 1) | 0
HCN2 | 0
LOC401471 | 0
SLC44A2 | 0
FBXO31 (F-box protein 31) | -1
DUSP18 (dual specificity phosphatase 18) | 0
ATOSB (atos homolog B) | 0
FCGR2C (Fc gamma receptor IIc (gene/pseudogene)) | 0
ALOX15 (arachidonate 15-lipoxygenase) | 0
OR10P1 (olfactory receptor family 10 subfamily P member 1) | 1
PHF21A (PHD finger protein 21A) | 0
MGC16279 | 0
SETBP1 (SET binding protein 1) | 0
CORIN (corin, serine peptidase) | -1
LOC387683 | 1
SLC15A2 | 0
ABI2 (abl interactor 2) | 0
TTC31 (tetratricopeptide repeat domain 31) | -1
PRKD3 (protein kinase D3) | 0
AFAP1 (actin filament associated protein 1) | 0
LOC440352 | 0
LOC338750 | 0
FBXL7 (F-box and leucine rich repeat protein 7) | 0
GARIN2 (golgi associated RAB2 interactor family member 2) | 1
LOC388684 | 0
